Data on two molecules can be found in PMC11896610.

Results are given in words; binding and its absence hold for the method and conditions named. In cells and extracts the contact can be indirect. Some results given as binding are weak or reduced against the parent protein; the word gives no strength. Where a sequence is shown, tags or fusion partners need not be part of it.

One test concerns the target T1, TEDC2-V5-APEX2 (human) (UniProt Q7L2K0).
T1 sequence: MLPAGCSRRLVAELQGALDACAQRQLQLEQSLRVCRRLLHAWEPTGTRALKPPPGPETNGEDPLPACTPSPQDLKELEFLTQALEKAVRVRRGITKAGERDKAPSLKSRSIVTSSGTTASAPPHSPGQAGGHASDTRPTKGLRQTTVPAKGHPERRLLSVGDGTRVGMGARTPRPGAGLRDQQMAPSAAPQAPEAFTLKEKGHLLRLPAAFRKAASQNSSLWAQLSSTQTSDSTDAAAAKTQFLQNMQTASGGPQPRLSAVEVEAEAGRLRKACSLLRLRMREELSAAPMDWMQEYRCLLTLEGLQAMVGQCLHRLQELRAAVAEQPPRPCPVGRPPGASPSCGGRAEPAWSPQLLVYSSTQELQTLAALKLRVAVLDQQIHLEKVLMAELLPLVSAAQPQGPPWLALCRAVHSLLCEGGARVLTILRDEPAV
The test is described as follows: co-IP; TEDC2-V5-APEX2 captured on V5-Trap magnetic agarose from lysate of TEDC2-/- cells rescued with it (50 mM Tris pH 7.5, 150 mM NaCl, 1% Triton X-100, 1 mM DTT; 1 hr, 4 °C), western blot; TEDC1 was also precipitated from TUBD1-/- and TUBE1-/- cells. (In western blotting, separated proteins are transferred to a membrane and probed.)

Test [1] deals with T2, TEDC1-Halotag-3xFlag (human) (UniProt Q86SX3).
T2 sequence: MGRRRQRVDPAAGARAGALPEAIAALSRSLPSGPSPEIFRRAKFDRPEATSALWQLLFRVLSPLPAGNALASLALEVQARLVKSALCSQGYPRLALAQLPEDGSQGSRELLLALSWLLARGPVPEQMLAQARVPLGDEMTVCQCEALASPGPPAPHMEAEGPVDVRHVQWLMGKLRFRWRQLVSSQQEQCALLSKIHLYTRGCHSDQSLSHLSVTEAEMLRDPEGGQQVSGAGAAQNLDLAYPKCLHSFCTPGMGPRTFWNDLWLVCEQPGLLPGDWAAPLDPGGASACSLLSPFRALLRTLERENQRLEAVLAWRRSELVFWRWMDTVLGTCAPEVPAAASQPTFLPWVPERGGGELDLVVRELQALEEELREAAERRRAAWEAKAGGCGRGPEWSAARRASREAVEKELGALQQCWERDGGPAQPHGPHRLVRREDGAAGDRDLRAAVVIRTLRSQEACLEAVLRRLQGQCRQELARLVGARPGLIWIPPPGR
The test is described as follows: co-IP; TEDC1-Halotag-3xFlag captured on Halo-Trap magnetic agarose from lysate of TEDC1-/- cells rescued with it (50 mM Tris pH 7.5, 150 mM NaCl, 1% Triton X-100, 1 mM DTT; 1 hr, 4 °C), western blot; TEDC2 was also precipitated from TUBD1-/- and TUBE1-/- cells.

B1: TEDC1 (protein, UniProt Q86SX3 1-495)
chain: T2 sequence
For B1, the binding entry with TEDC2-V5-APEX2 (human) is reported as “binds”.

B2: TEDC2 (protein, UniProt Q7L2K0 1-433)
chain: T1 sequence
For the molecule B2, the binding result in test [1] is listed as “binds”.
